According to US10377783B2, “Methods and compounds for enhancing contrast in magnetic resonance imaging (MRI)” (priority 2015, dated 2019):
For at least one compound, name, drawing or mass did not settle the structure. Some results were stated once for a whole list of compounds, not compound by compound.

Assays:
[1] = test system: primary rat renal proximal tubule epithelial cells (RPTECs); test: In vitro toxicity, MTT assay; type: cell-based; settings: 2 and 4 h of treatment, 0.04-30 mM
Procedure: Gadodiamide (Selleckchem, Lot #02) was used as the reference compound. It is one of the 8 Gd(III)-based MRI agents approved for use in Canada (trade name: Omniscan™).
The test articles and reference compound were weighed and dissolved in the incubation medium to give the highest test concentration of 30 mM. The solution was filter sterilized and diluted to the remaining test concentrations of 10 mM, 3.3 mM, 1.1 mM, 0.36 mM, 0.12 mM and 0.04 mM.
Cryopreserved primary rat renal proximal tubule epithelial cells (RPTECs) (ScienCell Research Laboratories, Carlsbad, Calif.) were used for the study. The rat RPTECs were thawed completely at 37° C., and transferred to epithelial cell medium (ScienCell Research Laboratories, Carlsbad, Calif.) followed by plating in poly-L-lysine coated 96-well plates. The RPTECs were allowed to recover and grow in a cell culture incubator (37° C., humidified atmosphere of 5% carbon dioxide and 95% air) for 3 additional days with a medium change every alternate day.
Following 3 days of plating, the RPTECs were washed once with serum free epithelial cell medium (ScienCell Research Laboratories, Carlsbad, Calif.) followed by treatment with the test, reference or control articles for 2, 4, 10 or 24 h. All treatments were performed in triplicate.
Cellular viability and metabolic activity were assessed by using the 3-(4,5-dimethylthiazol-2-yl)-2,5-diphenyl tetrazolium bromide (MTT) uptake assay. […] The resulting formazan crystals were dissolved in DMSO using an orbital shaker, and the absorbance at 570 nm was measured using a Victor ^3V multilabel plate reader (reference wavelength=650 nm). […]
An in vitro toxicity study was performed in order to evaluate the cytotoxic potential of several of the agents in primary rat renal proximal tubule epithelial cells (RPTECs), prior to performing in vivo studies. The Mn^II and Gd^III complexes of L1, L2 and L6 (complexes 1, 2, 5, and 7-9) were evaluated at seven concentrations (30 mM, 10 mM, 3.3 mM, 1.1 mM, 0.36 mM, 0.12 mM and 0.04 mM) after 2, 4, 10 and 24 hours of treatment in rat RPTECs. […]

[2] = test system: male rat (Sprague Dawley Crl:SD); test: In vivo MRI imaging of 2 and 6, T1-weighted scans; settings: 0.01 mmol/kg iv
Procedure: Compound 1 (aq., 12.5 mM) was injected intravenously into 2 male rats (Sprague Dawley Crl:SD, 312-338 g) at a dosage of 0.02 mmol/kg following anaesthesia with 5% isoflurane. Compound 2 (aq., 6.25 mM) was injected intravenously into 1 male rat (Sprague Dawley Crl:SD, 349 g) at a dosage of 0.01 mmol/kg following anaesthesia with 5% isoflurane. Compound 6 (aq., 6.25 mM) was injected intravenously into 1 male rat (Sprague Dawley Crl:SD, 341 g) at a dosage of 0.01 mmol/kg following anaesthesia with 5% isoflurane. Anesthesia was maintained at 2-2.5% isoflurane through a nose cone for the duration of the scans. Fast-spin-echo images were collected for 45 mins. immediately post-injection. For compound 1, the DT1-weighted RARE (Rapid Acquisition Relaxation Enhancement) scans were acquired with an echo time of 10 ms, and a repetition time=respiratory cycle duration (˜1100 ms). Both T1- and T2-weighted scans were collected on compounds 2 and 6.
The in vivo contrast potential of compounds 1, 2 and 6 were studied via the collection of fast-spin-echo images for 30-45 minutes immediately following injection of an aqueous solution of each complex. The dosage chosen for 1 was 0.02 mmol/kg (c=[…]) while the dosage chosen for 2 and 6 was 0.01 mmol/kg (c=6.25 mM). Predominantly T1-weighted scans with some T2-weighting were performed on two rats injected with 1. […]

[3] = cited from earlier work

Compound	nephrotoxicity [1]	time to appearance in the bladder [2] [min]	Clearance, renal/hepatic ratio [3]
CC1=NCCOCCOCCN=C(C)c2cccc1n2.O.O.[Cl-].[Cl-].[Mn+2] [Compound 2, [MnL2Cl2].2H2O]	a decrease in viability was observed	≤ 10	–
CC1=Nc2ccccc2OCCOCCOc2ccccc2N=C(C)c2cccc1n2.O.O.[Cl-].[Cl-].[Mn+2] [Compound 5, [MnL6Cl2].2H2O]	a decrease in viability was observed	–	–
CC1=NCCNCCNCCN=C(C)c2cccc1n2.O.O.O.[Cl-].[Cl-].[Cl-].[Gd+3] [Compound 7, [GdL1Cl3].3H2O]	a decrease in viability was observed	–	–
CCOc1ccc(CC(CN(CCN(CC(=O)[O-])CC(=O)[O-])CC(=O)[O-])N(CC(=O)[O-])CC(=O)[O-])cc1.[Gd+3].[Na+].[Na+] (centres unmarked) [Eovist or Primovist, gadoxetate]	–	–	50:50
